Values from PubChem BioAssay AID1259424 (University of Nebraska Medical Center, 2018)

- Aim: 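Rank knockdowns across the genome by resemblance to the KSR1 depletion profile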 (primary screen)
- Cell system: human HCT116 colon cancer cells
- Reagent: siRNA pool against human genes, 50 nM
- Detection: 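Log2 levels of six mRNAs (branched-DNA multiplex), adjusted by two reference genes and the non-targeting median, then scored against the average KSR1 knockdown pattern as Pearson r and euclidean distance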
- Scale: mean correlation with KSR1 profile: higher = expression change more like KSR1 knockdown; mean distance from KSR1 profile: higher = expression change less like KSR1 knockdown
The deposit covers about 14,000 reagents; shown is an unselected part. 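Higher correlation or smaller distance means closer resemblance to KSR1 loss; control wells, including KSR1 knockdowns, recur on many plates.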 Further read-outs or replicates are left out here. Reagent sequences are not shown. The record does not give: the time to read-out.

| gene symbol | mean correlation with KSR1 profile | mean distance from KSR1 profile |
| --- | --- | --- |
| RAB5A | -0.194 | 2.4 |
| ENDOU | 0.93 | 0.583 |
| SETD4 | -0.0308 | 3.86 |
| KANSL2 | -0.828 | 2.09 |
| CLEC3B | 0.575 | 2 |
| NOTCH1 | -0.0704 | 1.66 |
| ARHGEF10 | -0.161 | 2.15 |
| CSH1 | -0.358 | 1.38 |
| CDC6 | 0.396 | 2.55 |
| ZNF20 | 0.634 | 1.98 |
| PARD6A | -0.656 | 1.06 |
| DOCK1 | 0.0401 | 1.35 |
| LY6G5B | 0.683 | 1.71 |
| PSG4 | 0.00254 | 2.23 |
| SIRPD | 0.173 | 1.35 |
| MCPH1 | -0.13 | 2.71 |
| MAGEA8 | -0.585 | 3.53 |
| ATCAY | -0.0393 | 2.44 |
| FGF19 | -0.161 | 0.976 |
| RTRAF | -0.354 | 2.97 |
| PSMC6 | -0.569 | 3.61 |
| MS4A4A | 0.0575 | 1.7 |
| DNASE2 | -0.0741 | 1.88 |
| ADAM22 | -0.293 | 1.66 |
| CDC37L1 | -0.327 | 2.09 |
| GUF1 | 0.267 | 1.97 |
| LNX1 | -0.107 | 1.78 |
| MTR | -0.285 | 2.69 |
| TMEM181 | -0.337 | 1.97 |
| TDO2 | 0.0713 | 1.66 |
| ERBB2 | 0.657 | 2.3 |
| GRM7 | 0.279 | 1.98 |
| ITGAL | -0.771 | 1.64 |
| CPS1 | -0.872 | 2.6 |
| DDT | -0.195 | 2.34 |
| GNGT2 | -0.462 | 2.47 |
| OR1Q1 | -0.515 | 4.45 |
| TSHZ3 | -0.485 | 2.54 |
| ATPAF1 | -0.526 | 2.33 |
| KIAA0513 | -0.13 | 2.16 |
| NXF3 | -0.0902 | 2.98 |
| SMARCA5 | 0.11 | 2.13 |
| RNASE6 | -0.339 | 1.39 |
| C1orf198 | 0.292 | 2.18 |
| COL21A1 | -0.0884 | 3.03 |
| PGRMC2 | -0.0153 | 1.94 |
| SLC1A1 | -0.332 | 1.69 |
| GABPB1 | -0.632 | 3.54 |
| PLCH2 | -0.771 | 2.01 |
| RCE1 | 0.116 | 3.46 |

An excerpt of the results above:
| gene symbol | mean correlation with KSR1 profile | mean distance from KSR1 profile |
| --- | --- | --- |
| GRM7 | 0.279 | 1.98 |
| ITGAL | -0.771 | 1.64 |
| CPS1 | -0.872 | 2.6 |
